PubChem BioAssay AID602196 | INSERM, 2012

- Aim: 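Modifiers of cisplatin sensitivity in A549 cells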
- Cell system: human A549 lung cancer cells
- Knock-down reagent: siRNA pair against human genes
- Timing: 48 h transfection before cisplatin; time from cisplatin to read-out not stated
- Conditions: cisplatin at a dose killing half of control-siRNA cells; exact dose and duration not given
- Detection: 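Shift in cisplatin death relative to control siRNA, from -50 (all cells die) to +50 (no cells die); siRNAs harmful on their own scored 0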
- Scale: two-siRNA summed score (-2 to +2): higher = both siRNAs protect from cisplatin killing; -2 means both sensitise
- Active means: 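Each siRNA scores 0 if harmful alone by LDH or WST-1, otherwise +1 if it reduces and -1 if it increases cisplatin killing; a gene is active when both siRNAs agree (sum +2 or -2)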
- Meaning of the calls: active = both siRNAs shift cisplatin killing the same way; inactive = no consistent shift, or siRNA harmful alone
This is one part, drawn at random, of about 23,000 reagents. 455 of them (2%) were called active. 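Active includes both protection and sensitisation; some change values fall well beyond the stated -50 to +50 range.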 Further read-outs or replicates are left out here. No sequences are given here. Not given: the amount of reagent.

TRIM61 (tripartite motif containing 61) | two-siRNA summed score (-2 to +2): -1; activity call: inactive
RHOA (ras homolog family member A) | two-siRNA summed score (-2 to +2): 0; activity call: inactive
MTR (5-methyltetrahydrofolate-homocysteine methyltransferase) | two-siRNA summed score (-2 to +2): 0; activity call: inactive
CST5 (cystatin D) | two-siRNA summed score (-2 to +2): 0; activity call: inactive
GNL2 (G protein nucleolar 2) | two-siRNA summed score (-2 to +2): 0; activity call: inactive
SCIMP (SLP adaptor and CSK interacting membrane protein) | two-siRNA summed score (-2 to +2): 0; activity call: inactive
EFCAB3 (EF-hand calcium binding domain 3) | two-siRNA summed score (-2 to +2): 0; activity call: inactive
PHYHIP (phytanoyl-CoA 2-hydroxylase interacting protein) | two-siRNA summed score (-2 to +2): 0; activity call: inactive
TAGLN2 (transgelin 2) | two-siRNA summed score (-2 to +2): -1; activity call: inactive
NIFK (nucleolar protein interacting with the FHA domain of MKI67) | two-siRNA summed score (-2 to +2): 0; activity call: inactive
CELF2 (CUGBP Elav-like family member 2) | two-siRNA summed score (-2 to +2): 0; activity call: inactive
OR4S1 (olfactory receptor family 4 subfamily S member 1) | two-siRNA summed score (-2 to +2): 0; activity call: inactive
RBP5 (retinol binding protein 5) | two-siRNA summed score (-2 to +2): 0; activity call: inactive
FLJ38508 | two-siRNA summed score (-2 to +2): 2; activity call: active
LOC201181 | two-siRNA summed score (-2 to +2): 1; activity call: inactive
SNX17 (sorting nexin 17) | two-siRNA summed score (-2 to +2): -1; activity call: inactive
ZC3H15 (zinc finger CCCH-type containing 15) | two-siRNA summed score (-2 to +2): 0; activity call: inactive
SERPI-11 | two-siRNA summed score (-2 to +2): -1; activity call: inactive

Part of the list above, reformatted.
target gene,two-siRNA summed score (-2 to +2),activity call
PHYHIP (phytanoyl-CoA 2-hydroxylase interacting protein),0,inactive
TAGLN2 (transgelin 2),-1,inactive
NIFK (nucleolar protein interacting with the FHA domain of MKI67),0,inactive
CELF2 (CUGBP Elav-like family member 2),0,inactive

Further entries follow:
RFC3 (replication factor C subunit 3) | two-siRNA summed score (-2 to +2): 0; activity call: inactive
RSPH3 (radial spoke head 3) | two-siRNA summed score (-2 to +2): 1; activity call: inactive
TIGD2 (tigger transposable element derived 2) | two-siRNA summed score (-2 to +2): 0; activity call: inactive
DOCK8-AS1 (DOCK8 antisense RNA 1) | two-siRNA summed score (-2 to +2): 0; activity call: inactive
LOC440755 | two-siRNA summed score (-2 to +2): 0; activity call: inactive
TKFC (triokinase and FMN cyclase) | two-siRNA summed score (-2 to +2): 0; activity call: inactive
LOC402669 | two-siRNA summed score (-2 to +2): 0; activity call: inactive
LOC440840 | two-siRNA summed score (-2 to +2): 1; activity call: inactive
ZC3H18-DT (ZC3H18 divergent transcript) | two-siRNA summed score (-2 to +2): 1; activity call: inactive
ACP3 (acid phosphatase 3) | two-siRNA summed score (-2 to +2): 0; activity call: inactive
GPRC5B (G protein-coupled receptor class C group 5 member B) | two-siRNA summed score (-2 to +2): 1; activity call: inactive
GABRG2 (gamma-aminobutyric acid type A receptor subunit gamma2) | two-siRNA summed score (-2 to +2): -1; activity call: inactive
FHOD3 (formin homology 2 domain containing 3) | two-siRNA summed score (-2 to +2): 0; activity call: inactive
